Measurements as given in paper PMC11405407.
Read-outs that look alike come from different tables or passages of the source. No constants are given. Whether binding was seen depends on the method and setting. In cells and extracts the contact can be indirect. A yes stands for co-enrichment or nearness to the bait. Other partners may have been found.

Protein sequences, listed by entry. Tags and fused reporters are not part of them.
UniProt Q92831: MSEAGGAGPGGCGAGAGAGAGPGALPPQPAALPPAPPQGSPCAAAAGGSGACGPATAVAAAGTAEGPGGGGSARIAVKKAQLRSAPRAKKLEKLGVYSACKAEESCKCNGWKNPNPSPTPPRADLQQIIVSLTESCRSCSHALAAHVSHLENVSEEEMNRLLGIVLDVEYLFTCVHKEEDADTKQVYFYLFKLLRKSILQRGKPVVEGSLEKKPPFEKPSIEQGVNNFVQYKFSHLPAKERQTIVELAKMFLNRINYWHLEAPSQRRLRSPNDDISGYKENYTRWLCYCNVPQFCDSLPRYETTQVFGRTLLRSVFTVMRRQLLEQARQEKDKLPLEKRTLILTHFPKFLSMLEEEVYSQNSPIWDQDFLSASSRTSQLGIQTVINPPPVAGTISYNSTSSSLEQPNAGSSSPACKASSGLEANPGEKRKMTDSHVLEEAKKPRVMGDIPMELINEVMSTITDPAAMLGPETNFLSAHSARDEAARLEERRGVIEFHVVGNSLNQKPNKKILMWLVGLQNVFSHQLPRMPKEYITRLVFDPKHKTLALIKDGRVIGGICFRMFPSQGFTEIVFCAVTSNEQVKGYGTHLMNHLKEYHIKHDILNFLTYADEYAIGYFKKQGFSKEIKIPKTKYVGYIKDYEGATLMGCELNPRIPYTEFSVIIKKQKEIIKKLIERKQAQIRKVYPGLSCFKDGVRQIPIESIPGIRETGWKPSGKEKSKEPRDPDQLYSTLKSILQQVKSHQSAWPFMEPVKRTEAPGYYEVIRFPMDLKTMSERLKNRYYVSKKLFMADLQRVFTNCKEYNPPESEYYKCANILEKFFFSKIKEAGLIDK

Columns and labels:
[1] = target: Myc-tagged SNRNP200 (human) (UniProt O75643); assay: affinity purification with mass spectrometry; IP-LC-MS: HEK293T cells transfected with pCMV6-SNRNP200-Myc, immunoprecipitated with Protein A/G magnetic beads in IP buffer, bands specific to Myc-SNRNP200 cells digested with trypsin; control pCMV6-Entry
[2] = target: Myc-tagged SNRNP200 (human) (UniProt O75643); assay: as above; remark: listed apart in the source

binding [1] | binding [2] | Molecule
binds |  | PCAF (endogenous) (from UniProt Q92831 1-832) (enzyme)
 | binds | RNF123 (endogenous) (enzyme, UniProt Q5XPI4 1-1314) MASKGAGMSFSRKSYRLTSDAEKSRVTGIVQEKLLNDYLNRIFSSSEHAPPAATSRKPLNFQNLPEHLDQLLQVDNEEEESQGQVEGRLGPSTVVLDHTGGFEGLLLVDDDLLGVIGHSNFGTIRSTTCVYKGKWLYEVLISSQGLMQIGWCTISCRFNQEEGVGDTHNSYAYDGNRVRKWNVTTTNYGKAWAAGDIVSCLIDLDDGTLSFCLNGVSLGTAFENLSRGLGMAYFPAISLSFKESVAFNFGSRPLRYPVAGYRPLQDPPSADLVRAQRLLGCFRAVLSVELDPVEGRLLDKESSKWRLRGQPTVLLTLAHIFHHFAPLLRKVYLVEAVLMSFLLGIVEKGTPTQAQSVVHQVLDLLWLFMEDYEVQDCLKQLMMSLLRLYRFSPIVPDLGLQIHYLRLTIAILRHEKSRKFLLSNVLFDVLRSVVFFYIKSPLRVEEAGLQELIPTTWWPHCSSREGKESTEMKEETAEERLRRRAYERGCQRLRKRIEVVEELQVQILKLLLDNKDDNGGEASRYIFLTKFRKFLQENASGRGNMPMLCPPEYMVCFLHRLISALRYYWDEYKASNPHASFSEEAYIPPQVFYNGKVDYFDLQRLGGLLSHLRKTLKDDLASKANIVIDPLELQSTAMDDLDEDEEPAPAMAQRPMQALAVGGPLPLPRPGWLSSPTLGRANRFLSTAAVSLMTPRRPLSTSEKVKVRTLSVEQRTREDIEGSHWNEGLLLGRPPEEPEQPLTENSLLEVLDGAVMMYNLSVHQQLGKMVGVSDDVNEYAMALRDTEDKLRRCPKRRKDILAELTKSQKVFSEKLDHLSRRLAWVHATVYSQEKMLDIYWLLRVCLRTIEHGDRTGSLFAFMPEFYLSVAINSYSALKNYFGPVHSMEELPGYEETLTRLAAILAKHFADARIVGTDIRDSLMQALASYVCYPHSLRAVERIPEEQRIAMVRNLLAPYEQRPWAQTNWILVRLWRGCGFGYRYTRLPHLLKTKLEDANLPSLQKPCPSTLLQQHMADLLQQGPDVAPSFLNSVLNQLNWAFSEFIGMIQEIQQAAERLERNFVDSRQLKVCATCFDLSVSLLRVLEMTITLVPEIFLDWTRPTSEMLLRRLAQLLNQVLNRVTAERNLFDRVVTLRLPGLESVDHYPILVAVTGILVQLLVRGPASEREQATSVLLADPCFQLRSICYLLGQPEPPAPGTALPAPDRKRFSLQSYADYISADELAQVEQMLAHLTSASAQAAAASLPTSEEDLCPICYAHPISAVFQPCGHKSCKACINQHLMNNKDCFFCKTTIVSVEDWEKGANTSTTSSAA
